Measured data: PubChem BioAssay AID504784 (Drosophila RNAi Screening Center, 2011)
The screen tested about 17,000 reagents; shown is an unselected part of those with a known target gene and a result. 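Each column is one replicate's B-score; the combined score over replicates was not deposited, so single values may mislead.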 A plus sign joins genes that one reagent is predicted to hit. No sequences are given here.

Purpose: 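Genome-wide knock-down for genes giving too much or too little stored lipid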 (primary screen)
Cell system: Drosophila Kc167 embryonic cells
Knock-down reagent: long dsRNA against Drosophila genes, about 250 ng dsRNA per well
Time to read-out: 4 days
Conditions: cells fed 400 µM oleic acid bound to BSA
Measurement: 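Microscope images give a droplet-to-nucleus area ratio, taken as log and converted to a screen-wide B-score; higher values mean greater lipid storage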
Reading the numbers: droplet/nuclear area B-score: higher = more stored lipid (overstorage)

no.	Target gene	amplicon	droplet/nuclear area B-score, replicate 1	droplet/nuclear area B-score, replicate 2	droplet/nuclear area B-score, replicate 3
1	Pink1 (PTEN-induced putative kinase 1)	DRSC18361	1.14	0.152	1.01
2	beg (bad egg)	DRSC10923	0.853	1.55	-0.0313
3	nkd (naked cuticle)	DRSC11376	-0.977	-0.0185	
4	Ythdc1 (YTH domain containing 1)	DRSC08141	-0.22	-0.983	
5	beta-Spec (beta Spectrin)	DRSC20311	-1.16	0.133	
6	CG5421	DRSC02858	0.415	-1.37	
7	Osi24 (Osiris 24)	DRSC12275	-0.522	-0.0135	
8	jdp	DRSC16975	0.972	-0.344	
9	CG14453	DRSC11710	1.17	-0.206	1.59
10	SLIRP2 (SRA stem-loop interacting RNA binding protein 2)	DRSC16363	-0.0564	-1.59	
11	Trissin	DRSC14994	-3.42	-3.59	
12	CG17350	DRSC02611	-0.791	3.38	
13	CG5757	DRSC06951	-0.484	-2.8	
14	CG13230	DRSC06350	-0.082	-1.42	
15	CG32277	DRSC08196	-1.82	-0.57	
16	Nplp4 (Neuropeptide-like precursor 4)	DRSC00391	-0.00417	-1.09	
17	CG7402	DRSC10839	0.865	-0.298	
18	smal (smoke alarm)	DRSC02318	-1.86	0.577	-0.218
19	smal (smoke alarm)	DRSC02319	0.319	1.53	
20	smal (smoke alarm)	DRSC02320	-0.464	-0.818	
21	smal (smoke alarm)	DRSC02504	1	3.77	
22	smal (smoke alarm)	DRSC22866	-2.51	-0.516	
23	FarO (Fatty acyl-CoA reductase in oenocytes)	DRSC18475	0.042	-0.571	
24	CG14929 + CG4970	DRSC02411	0.728	-0.445	
25	CG14929 + CG4970	DRSC02796	-2.06	-0.103	
26	Cdc50 (Cell division cycle 50)	DRSC20224	0.812	3.94	
27	alrm (astrocytic leucine-rich repeat molecule)	DRSC14436	0.862	0.23	
28	bic (bicaudal)	DRSC07584	2.71	1.95	
29	E(spl)mbeta-HLH (Enhancer of split mbeta, helix-loop-helix)	DRSC16697	-1.45	-0.688	
30	CG3649	DRSC04400	0.905	-0.959	
31	kumpel (kin of rumpel)	DRSC14883	0.124	1.6	
32	kumpel (kin of rumpel)	DRSC16459	-0.554	1.98	
33	kumpel (kin of rumpel)	DRSC16460	5.62	-0.919	
34	kumpel (kin of rumpel)	DRSC16461	1.08	0.0466	
35	kumpel (kin of rumpel)	DRSC16462	1.49	-0.899	
36	kumpel (kin of rumpel)	DRSC16463	0.407	0.0677	
37	CG10700	DRSC02096	-0.0212	0.333	
38	CG10317	DRSC14229	0.421	-0.174	
39	fs(2)ltoPP43 (female sterile (2) ltoPP43)	DRSC02067	3.06	0.014	
40	CG4704	DRSC15628	-0.912	-0.509	
41	Msp300 (Muscle-specific protein 300 kDa)	DRSC00856	-0.0944	2.47	
42	Msp300 (Muscle-specific protein 300 kDa)	DRSC00857	0.98	0.67	
43	Msp300 (Muscle-specific protein 300 kDa)	DRSC00858	0.0944	-0.00535	
44	Msp300 (Muscle-specific protein 300 kDa)	DRSC02360	0.0573	-0.014	
45	Msp300 (Muscle-specific protein 300 kDa)	DRSC03369	-0.309	0.204	
46	Msp300 (Muscle-specific protein 300 kDa)	DRSC03370	1	2.71	
47	CG7065	DRSC18420	-1.88	0.277	0.357
48	PIG-Wb (Phosphatidylinositol glycan anchor biosynthesis class W b)	DRSC08526	-0.535	1.64	
49	Gr58c (Gustatory receptor 58c)	DRSC04136	0.5	2.44	
50	CG18547	DRSC15345	0.88	-0.125	
51	Chd1 (Chromodomain-helicase-DNA-binding protein 1)	DRSC00745	0.342	0.231	
52	CG31933	DRSC00457	-1.61	-1.02	
53	CG12825	DRSC06174	1.38	-1.67	-1.05
54	TBC1D16 (TBC1 domain family member 16)	DRSC02841	-0.261	0.794	
55	OtopLc (Otopetrin-like c)	DRSC18082	-1.54	-0.959	
56	OtopLc (Otopetrin-like c)	DRSC18083	0.167	0.115	
57	OtopLc (Otopetrin-like c)	DRSC18132	-0.28	-0.815	
58	CG7544	DRSC07023	-0.0172	0.034	
59	CG1999	DRSC18199	0.874	0.553	-1.64
60	CG17780 + CG17781	DRSC15266	0.905	-1.33	
61	CG43658	DRSC20111	-0.052	0.842	
62	CG33235	DRSC19641	-1.46	-1.93	0.0282
63	CG11052	DRSC14288	-1.18	0.689	
64	chk (chaski)	DRSC04994	-0.536	-2.58	
65	CG3880	DRSC04428	-1.02	-0.00286	
66	CG3880	DRSC21404	1.04	-2.17	
67	CG32832	DRSC01562	-0.28	0.0731	
68	CG31068	DRSC13820	0.21	0.559	
69	CG8517	DRSC07205	1.58	1.26	
70	CG14007	DRSC02339	1.05	2.06	
71	Cpr76Bc (Cuticular protein 76Bc)	DRSC11062	-0.402	-0.23	
72	DEF8 (differentially expressed in FDCP 8 homolog)	DRSC09840	0.298	1.13	
73	CG5446	DRSC02862	-1.22	0.0917	
74	edin (elevated during infection)	DRSC09488	1.6	-0.315	
75	Def (Defensin)	DRSC07398	1.69	-1.46	
76	Arf1 (ADP ribosylation factor 1)	DRSC11606	7.13	3.5	1.4
77	CG33116	DRSC02045	-0.592	1.77	
78	cmb (combover)	DRSC09790	1.72	-0.196	
79	CG17625	DRSC15249	0.154	0.0414	
80	CCAP (Crustacean cardioactive peptide)	DRSC15674	-3.09	-0.376	
81	Cyp6a18 (Cytochrome P450 6a18)	DRSC16632	-1.43	0.487	
82	CG5267	DRSC06928	1.3	-1.8	
83	IP3K1 + hpRNA:CR18854	DRSC23313	-0.656	-2.17	
84	Zn72D (Zinc-finger protein at 72D)	DRSC11318	-0.181	-0.00516	0.19
85	CG12688 (retired record)	DRSC17877	0.703	-0.299	-0.00148
86	CG12688 (retired record)	DRSC17878	-1.09	-1.68	-0.258
87	CG2111	DRSC18205	-3.46	0.439	0.682
88	CG8176	DRSC16394	-0.0591	-0.0407	
89	CG10589	DRSC11629	0.0413	0.00137	
90	CG5326	DRSC13568	0.89	-0.183	
91	CG5326	DRSC15770	-2.24	1.59	
92	tadr (torn and diminished rhabdomeres)	DRSC03177	0.745	-0.00793	
93	Hexim (Hexamethylene bisacetamide inducible)	DRSC15490	-0.0118	0.115	
94	CG3600 (retired record)	DRSC18599	1.14	1.67	
95	Rap2l (Ras-associated protein 2-like)	DRSC04646	-0.619	0.56	
96	lush	DRSC11364	0.0613	-0.316	
97	Cyp28d2 (Cytochrome P450 28d2)	DRSC03299	-1.63	0.00446	
98	CG12194	DRSC00345	0.358	0.256	
99	CG4230	DRSC02740	0.0299	-0.0845	
100	CG13177	DRSC06303		-0.25	
101	CG30031 + deltaTry + CG30025 + 1 more	DRSC21262	1.07	-0.000231	
102	lncRNA:CR32553 (long non-coding RNA:CR32553)	DRSC19229	0.694	-0.22	
103	Gpdh1 (Glycerol-3-phosphate dehydrogenase 1)	DRSC03336	0.201	-0.0961	-0.388
104	Gpdh1 (Glycerol-3-phosphate dehydrogenase 1)	DRSC21666	2.19	-4.23	
105	CG32733 (retired record) + CG32797	DRSC17705	2.37	5.68	3.9

Entries listed so far whose target name starts with T or t (3):
Target gene	amplicon	droplet/nuclear area B-score, replicate 1	droplet/nuclear area B-score, replicate 2	droplet/nuclear area B-score, replicate 3
Trissin	DRSC14994	-3.42	-3.59	
TBC1D16 (TBC1 domain family member 16)	DRSC02841	-0.261	0.794	
tadr (torn and diminished rhabdomeres)	DRSC03177	0.745	-0.00793	
